Measured values as given in publication PMC12670160, “A drug-repurposing screen of FDA- and EMA-approved drugs identifies two NF-κB inhibitors active against eumycetoma” (Journal of Antimicrobial Chemotherapy, 2025).
Structures can show the parent of a compound that is named as a salt. The whole screen tested about 5,300 compounds, of which about 130 (2.5%) showed an effect of 50% or more. The list shows a part of the results. Numbered stars: 1 amine (or outer) side, 2 acyl side, 3 side chain; on linkers, the order of the positions; unused ones are H or OH. Bridge positions count the residues as written; N and C are the ends. Peptide text beside a SMILES is read from it. X4 = O=C(CCC[*:2])[*:1]

The molecules below were run on M. mycetomatis strain mm55. Details: primary screen, metabolic activity vs growth control; 96 h, 2 µM; inhibitor.

SMILES	% viability [%]
Cc1nnc(C(=O)NC(C)(C)c2nc(C(=O)NCc3ccc(F)cc3)c(O)c(=O)n2C)o1 [ONC0004886, raltegravir mk0518]	133.9
COc1ccc(CN2C(=O)C(=O)c3cc(OC(F)(F)F)ccc32)cc1 [ONC0000083, vu0238429]	96.61
O=C(O)c1cc2occc2[nH]1 [ONC0003725, sep227900]	109.2
Cc1ccccc1OCC(O)CNCCOc1ccc(C(N)=O)cc1 (centres unmarked) [ONC0005398, tolamolol]	88.16
c1ccc(NCc2ccc(CNc3ccccn3)cc2)nc1 [ONC0004550, wz 811]	63.57
Oc1ncc(F)cn1 [ONC0005399, 5fp]	80.31
CN1CCN(Cc2ccc(Nc3ncc(Cl)c(Nc4ccccc4S(=O)(=O)N(C)C)n3)cc2)CC1 [ONC0002772, dubermatinib]	82.95
COC(=O)c1ccc2c(c1)nc(NC(=O)c1ccccc1)n2CCCc1ccccc1 [ONC0001215, brd4770]	70.54
CCOC(=O)[C@@H](N)Cc1ccc(-c2cc(O[C@H](c3ccc(Cl)cc3-n3ccc(C)n3)C(F)(F)F)nc(N)n2)cc1 [ONC0004655, lx1606 hippurate]	100.2
Oc1ccc2ccccc2c1 [ONC0003396, 2naphthol]	62.74
Cc1cc2sc(NC(=O)Cc3ccccc3)nc2cc1Cl [ONC0001377, lh846]	97.62
CC(C)CC(N)=O [ONC0002770, isovaleramide]	87.82
COc1c2occc2cc2ccc(=O)oc12 [ONC0005318, methoxsalen]	102.8
COc1ccc2c(c1OC)C(=O)O[C@H]2[C@H]1c2c(cc3c(c2OC)OCO3)CCN1C [ONC0000496, noscapine hydrochloride]	91.4
Cn1c(=O)c2c(ncn2CC(=O)Nc2ccc(-c3ccccc3)nn2)n(C)c1=O [ONC0001345, etc159]	68.99
CCc1ccccc1OC[C@@H](O)CN[C@H]1CCCc2ccccc21 [ONC0002548, sr59230a]	113.3
NCc1ccccc1CC(=O)N[C@@H]1C(=O)N2C(C(=O)O)=C(CSc3nnnn3CC(=O)O)CS[C@H]12 [ONC0000321, ceforanide]	98.09
N#Cc1ccc(C(c2ccc(C#N)cc2)n2cncn2)cc1 [ONC0004873, letrozole]	128.8
CC(=O)NC[C@H]1CN(c2ccc(-c3ccc(CNCc4cnn[nH]4)cc3)c(F)c2)C(=O)O1 [ONC0002235, radezolid]	86.78
CN(C(=O)CN1C(=O)COc2cc(Cl)c(Cl)cc21)[C@@H](CN1CCCC1)c1ccc(-c2cccc(C(N)=O)c2)cc1 [ONC0003625, gsk1562590]	72.46
CN(C)C(=O)Nc1cccc(-c2ccc(N(C)C)cc2)c1 [ONC0005092, atglistatin]	81.63

Part of the list above in a different format.
SMILES | % viability [%]
COC(=O)c1ccc2c(c1)nc(NC(=O)c1ccccc1)n2CCCc1ccccc1 [ONC0001215, brd4770] | 70.54
CCOC(=O)[C@@H](N)Cc1ccc(-c2cc(O[C@H](c3ccc(Cl)cc3-n3ccc(C)n3)C(F)(F)F)nc(N)n2)cc1 [ONC0004655, lx1606 hippurate] | 100.2
Oc1ccc2ccccc2c1 [ONC0003396, 2naphthol] | 62.74

Remaining list, next part.

SMILES	% viability [%]
Clc1ccc(CCC(Cn2ccnc2)Sc2c(Cl)cccc2Cl)cc1 (centres unmarked) [ONC0005620, butoconazole]	76.6
O=C(O)[C@@H]1C[C@@H](C2CCCCC2)CN1C(=O)CP(=O)(O)CCCCc1ccccc1 [ONC0000345, fosinoprilat]	76.06
O=C(Nc1cccc(Cl)c1)c1ccccn1 [ONC0004653, vu 0364770]	68.57
COc1ccc(CNC(=O)c2sc3nc(C)cc(C)c3c2N)cc1 [ONC0000170, vu152100]	74.04
N=C1NC(=O)/C(=C/c2ccc(O)cc2)S1 [ONC0000892, mirin]	80.47
CC[C@H](C)[C@@H]1NC(=O)[C@H](Cc2ccc(OC)cc2)NC(=O)CCCSC[C@@H](C(=O)N2CCC[C@H]2C(=O)N[C@@H](CC(C)C)C(=O)NCC(N)=O)NC(=O)[C@H](CC(N)=O)NC(=O)[C@H](CCC(N)=O)NC1=O [ONC0002013, carbetocin] (Y(Me)IQNCPLG-NH2; linker N-5 via X4)	109.7
O=C1NC(=O)c2c1c(-c1ccccc1)cc1[nH]c3ccc(O)cc3c21 [ONC0001381, pd407824]	107.7
Nc1c(CC(=O)O)cccc1C(=O)c1ccccc1 [ONC0004808, amfenac sodium monohydrate]	67.41
COc1cc(N2CCOCC2)ccc1Nc1ncc(Cl)c(Nc2ccccc2NS(C)(=O)=O)n1 [ONC0004450, czc54252]	127.1
COc1ccc([C@@H]2CC(=O)c3c(O)cc(O)cc3O2)cc1O [ONC0004957, hesperetin]	99.39
CCOC(=O)c1cc(C#N)c(N2CCC(C(=O)NS(=O)(=O)Cc3ccccc3)CC2)nc1C [ONC0001847, azd1283]	124
CCCOC(=O)c1ccccc1 [ONC0004461, propylbenzoate]	80.68
CCCc1cc(C)[nH]c(=O)c1CNC(=O)c1cc(-c2ccc(N3CCN(C(C)C)CC3)nc2)cc2c1cnn2C(C)C [ONC0004378, unc1999]	94.47
CCOC(=O)c1ccccc1OC(=O)CCCCCCCC(=O)Oc1ccccc1C(=O)OCC [ONC0003554, tu2100]	98.87
CC1(C)OC(=O)C(OCC2CC2)=C1c1ccc(S(C)(=O)=O)cc1 [ONC0003938, firocoxib]	78.14
CCN(CC)CCOC(=O)C1(C2CCCCC2)CCCCC1 [ONC0000555, dicyclomine hydrochloride]	77.77
Oc1ccccc1 [ONC0005379, phenol]	99.71
Oc1cc(O)c2c(c1)O[C@H](c1ccc(O)c(O)c1)[C@@H](O)C2 [ONC0003313, cianidanol catechin]	78.22
C[N+]1(C)CCC(OC(=O)C(c2ccccc2)c2ccccc2)CC1 [ONC0003592, 4damp]	92.53
